These are yes or no findings as the source states them, for the method shown. In cells and extracts the contact can be indirect. Some binding calls cover weakened binding; strength is not graded here.
Key:
FASN (human) [1] = molecular target: FASN (human) (UniProt P49327); assay: IP-MS interactome analysis
MST4 (STK26) (human) = MST4 (STK26) (human) (UniProt Q9P289); assay: IP-MS interactome analysis
Importin β-1 (human) = Importin β-1 (human) (UniProt Q14974); assay: IP-MS interactome analysis (FIG. 8)
FASN (human) [2] = molecular target: FASN (human) (UniProt P49327); assay: IP-MS interactome analysis (FIG. 8)
Exportin-1 (human) = Exportin-1 (human) (UniProt O14980); assay: IP-MS interactome analysis (FIG. 8)

By UniProt entry, the sequences of proteins in these tests, tags left out. Residues count along the entry.
UniProt P49327: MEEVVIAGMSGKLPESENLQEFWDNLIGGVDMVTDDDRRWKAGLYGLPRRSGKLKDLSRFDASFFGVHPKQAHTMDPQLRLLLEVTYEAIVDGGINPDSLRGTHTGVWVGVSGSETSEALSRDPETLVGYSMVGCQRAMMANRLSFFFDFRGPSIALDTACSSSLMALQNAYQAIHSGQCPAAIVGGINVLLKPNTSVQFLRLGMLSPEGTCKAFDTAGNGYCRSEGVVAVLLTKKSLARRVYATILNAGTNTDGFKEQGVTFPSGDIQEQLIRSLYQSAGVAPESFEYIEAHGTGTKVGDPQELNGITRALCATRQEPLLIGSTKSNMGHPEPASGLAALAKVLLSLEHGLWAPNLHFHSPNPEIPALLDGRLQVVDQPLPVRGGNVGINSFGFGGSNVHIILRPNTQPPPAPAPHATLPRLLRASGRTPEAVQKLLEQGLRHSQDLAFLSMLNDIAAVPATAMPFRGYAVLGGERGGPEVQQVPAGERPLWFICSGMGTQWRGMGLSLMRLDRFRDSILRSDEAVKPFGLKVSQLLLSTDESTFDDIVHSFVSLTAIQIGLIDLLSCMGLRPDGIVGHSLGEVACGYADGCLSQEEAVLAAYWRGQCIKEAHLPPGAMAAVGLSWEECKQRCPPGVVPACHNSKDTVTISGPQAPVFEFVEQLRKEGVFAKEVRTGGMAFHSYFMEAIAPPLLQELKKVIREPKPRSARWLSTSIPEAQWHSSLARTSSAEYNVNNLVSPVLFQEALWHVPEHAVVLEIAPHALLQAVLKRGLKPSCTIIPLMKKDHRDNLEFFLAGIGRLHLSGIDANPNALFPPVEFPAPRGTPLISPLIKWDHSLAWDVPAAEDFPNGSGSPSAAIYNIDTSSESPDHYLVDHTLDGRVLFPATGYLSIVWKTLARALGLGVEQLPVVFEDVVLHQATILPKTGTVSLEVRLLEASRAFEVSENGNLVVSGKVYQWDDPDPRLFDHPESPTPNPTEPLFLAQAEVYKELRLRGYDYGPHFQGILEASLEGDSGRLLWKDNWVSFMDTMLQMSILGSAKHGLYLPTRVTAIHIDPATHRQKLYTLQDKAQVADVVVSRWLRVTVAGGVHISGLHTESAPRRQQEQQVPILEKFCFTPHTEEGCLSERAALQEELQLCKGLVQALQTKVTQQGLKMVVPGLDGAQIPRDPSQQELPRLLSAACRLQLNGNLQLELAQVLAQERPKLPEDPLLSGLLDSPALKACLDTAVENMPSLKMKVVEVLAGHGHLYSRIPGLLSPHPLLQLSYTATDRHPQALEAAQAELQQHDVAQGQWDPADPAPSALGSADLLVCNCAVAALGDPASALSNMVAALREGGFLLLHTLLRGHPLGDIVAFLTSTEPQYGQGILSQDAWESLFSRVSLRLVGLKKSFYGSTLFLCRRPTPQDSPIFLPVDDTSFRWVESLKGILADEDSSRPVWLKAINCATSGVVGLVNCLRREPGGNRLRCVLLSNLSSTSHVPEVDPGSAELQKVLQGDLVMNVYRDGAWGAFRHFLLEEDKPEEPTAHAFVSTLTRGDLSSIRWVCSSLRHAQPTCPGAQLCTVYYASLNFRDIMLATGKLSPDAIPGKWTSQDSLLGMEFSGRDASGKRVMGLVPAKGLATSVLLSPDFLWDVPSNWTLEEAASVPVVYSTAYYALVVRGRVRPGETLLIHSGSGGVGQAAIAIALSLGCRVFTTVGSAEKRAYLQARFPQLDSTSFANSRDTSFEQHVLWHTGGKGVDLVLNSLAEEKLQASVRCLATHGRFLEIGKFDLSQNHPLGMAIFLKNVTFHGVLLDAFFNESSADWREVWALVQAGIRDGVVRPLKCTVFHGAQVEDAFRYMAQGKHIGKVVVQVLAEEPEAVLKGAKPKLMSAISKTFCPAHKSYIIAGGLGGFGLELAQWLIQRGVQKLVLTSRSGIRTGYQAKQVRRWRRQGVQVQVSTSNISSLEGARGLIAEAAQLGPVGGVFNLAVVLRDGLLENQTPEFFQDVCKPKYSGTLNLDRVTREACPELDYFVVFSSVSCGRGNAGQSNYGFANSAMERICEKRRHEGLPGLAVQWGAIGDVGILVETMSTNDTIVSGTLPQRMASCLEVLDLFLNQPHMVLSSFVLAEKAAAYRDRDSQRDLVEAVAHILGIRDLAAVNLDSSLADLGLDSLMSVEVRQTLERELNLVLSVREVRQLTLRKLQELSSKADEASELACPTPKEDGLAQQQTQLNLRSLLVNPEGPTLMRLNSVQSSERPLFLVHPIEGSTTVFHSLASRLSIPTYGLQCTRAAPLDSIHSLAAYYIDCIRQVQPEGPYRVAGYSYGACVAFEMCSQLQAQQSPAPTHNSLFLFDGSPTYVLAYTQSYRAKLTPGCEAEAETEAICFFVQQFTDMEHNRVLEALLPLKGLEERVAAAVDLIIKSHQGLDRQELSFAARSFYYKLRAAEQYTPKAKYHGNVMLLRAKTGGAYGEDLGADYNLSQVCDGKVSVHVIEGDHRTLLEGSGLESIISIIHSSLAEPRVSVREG
UniProt Q9P289, residues 2-416: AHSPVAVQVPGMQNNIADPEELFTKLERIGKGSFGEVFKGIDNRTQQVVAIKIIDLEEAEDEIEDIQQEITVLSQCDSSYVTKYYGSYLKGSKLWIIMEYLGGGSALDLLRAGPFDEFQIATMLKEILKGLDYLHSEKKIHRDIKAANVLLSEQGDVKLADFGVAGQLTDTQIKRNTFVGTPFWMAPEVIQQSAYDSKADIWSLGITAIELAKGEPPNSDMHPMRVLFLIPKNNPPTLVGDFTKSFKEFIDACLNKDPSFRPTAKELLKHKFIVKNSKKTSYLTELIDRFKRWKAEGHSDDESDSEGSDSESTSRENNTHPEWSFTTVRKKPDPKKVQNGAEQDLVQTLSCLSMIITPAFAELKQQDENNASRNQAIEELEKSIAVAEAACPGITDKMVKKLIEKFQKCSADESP
UniProt Q14974: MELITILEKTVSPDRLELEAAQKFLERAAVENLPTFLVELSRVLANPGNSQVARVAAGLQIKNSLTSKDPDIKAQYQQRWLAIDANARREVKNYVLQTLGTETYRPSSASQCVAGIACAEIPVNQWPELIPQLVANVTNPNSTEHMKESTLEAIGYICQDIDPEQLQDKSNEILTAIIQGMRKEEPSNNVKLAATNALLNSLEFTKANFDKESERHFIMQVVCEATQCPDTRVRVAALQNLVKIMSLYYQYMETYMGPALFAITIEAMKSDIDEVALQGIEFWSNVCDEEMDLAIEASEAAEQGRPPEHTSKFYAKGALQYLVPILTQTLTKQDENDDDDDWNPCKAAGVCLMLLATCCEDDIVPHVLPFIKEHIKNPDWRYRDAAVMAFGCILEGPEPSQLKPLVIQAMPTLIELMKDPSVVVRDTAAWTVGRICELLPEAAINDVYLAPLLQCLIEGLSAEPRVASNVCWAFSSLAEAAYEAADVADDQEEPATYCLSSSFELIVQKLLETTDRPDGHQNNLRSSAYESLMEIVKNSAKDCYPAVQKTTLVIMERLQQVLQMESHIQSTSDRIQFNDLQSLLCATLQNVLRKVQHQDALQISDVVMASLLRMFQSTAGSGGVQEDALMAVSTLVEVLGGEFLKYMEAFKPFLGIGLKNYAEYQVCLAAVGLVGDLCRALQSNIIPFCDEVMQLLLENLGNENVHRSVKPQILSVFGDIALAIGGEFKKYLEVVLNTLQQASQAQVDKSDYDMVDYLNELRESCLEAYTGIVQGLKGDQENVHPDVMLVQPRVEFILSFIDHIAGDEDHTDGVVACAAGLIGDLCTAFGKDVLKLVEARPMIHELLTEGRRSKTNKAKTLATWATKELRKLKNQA
UniProt O14980: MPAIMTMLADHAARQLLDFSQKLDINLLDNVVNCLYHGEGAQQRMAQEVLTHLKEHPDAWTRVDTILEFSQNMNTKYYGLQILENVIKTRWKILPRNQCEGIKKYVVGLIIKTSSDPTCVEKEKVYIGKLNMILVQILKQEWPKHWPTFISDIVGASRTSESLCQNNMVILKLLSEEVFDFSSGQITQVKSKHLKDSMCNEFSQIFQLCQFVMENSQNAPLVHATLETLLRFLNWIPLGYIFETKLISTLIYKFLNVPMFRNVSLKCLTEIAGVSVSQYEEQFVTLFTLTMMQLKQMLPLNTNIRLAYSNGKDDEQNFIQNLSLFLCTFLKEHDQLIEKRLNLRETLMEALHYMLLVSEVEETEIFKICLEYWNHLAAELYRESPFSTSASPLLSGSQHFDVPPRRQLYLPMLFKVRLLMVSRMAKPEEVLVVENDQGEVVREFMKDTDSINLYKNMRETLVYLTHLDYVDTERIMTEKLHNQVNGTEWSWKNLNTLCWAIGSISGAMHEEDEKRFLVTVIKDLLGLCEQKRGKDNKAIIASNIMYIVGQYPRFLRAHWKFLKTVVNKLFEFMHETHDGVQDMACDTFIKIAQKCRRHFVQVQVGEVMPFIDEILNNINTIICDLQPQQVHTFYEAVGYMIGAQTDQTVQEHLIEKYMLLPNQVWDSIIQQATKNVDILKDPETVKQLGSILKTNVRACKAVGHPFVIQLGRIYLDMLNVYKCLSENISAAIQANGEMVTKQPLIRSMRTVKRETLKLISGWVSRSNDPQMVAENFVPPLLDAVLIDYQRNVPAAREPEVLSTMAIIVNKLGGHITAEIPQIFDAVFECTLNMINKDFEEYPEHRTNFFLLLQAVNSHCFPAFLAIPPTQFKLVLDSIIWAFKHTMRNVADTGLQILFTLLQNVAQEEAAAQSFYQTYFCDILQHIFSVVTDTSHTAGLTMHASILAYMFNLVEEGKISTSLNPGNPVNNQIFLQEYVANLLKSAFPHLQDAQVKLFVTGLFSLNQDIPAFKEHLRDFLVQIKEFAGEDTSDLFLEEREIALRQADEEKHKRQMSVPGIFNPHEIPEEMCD
UniProt O43353: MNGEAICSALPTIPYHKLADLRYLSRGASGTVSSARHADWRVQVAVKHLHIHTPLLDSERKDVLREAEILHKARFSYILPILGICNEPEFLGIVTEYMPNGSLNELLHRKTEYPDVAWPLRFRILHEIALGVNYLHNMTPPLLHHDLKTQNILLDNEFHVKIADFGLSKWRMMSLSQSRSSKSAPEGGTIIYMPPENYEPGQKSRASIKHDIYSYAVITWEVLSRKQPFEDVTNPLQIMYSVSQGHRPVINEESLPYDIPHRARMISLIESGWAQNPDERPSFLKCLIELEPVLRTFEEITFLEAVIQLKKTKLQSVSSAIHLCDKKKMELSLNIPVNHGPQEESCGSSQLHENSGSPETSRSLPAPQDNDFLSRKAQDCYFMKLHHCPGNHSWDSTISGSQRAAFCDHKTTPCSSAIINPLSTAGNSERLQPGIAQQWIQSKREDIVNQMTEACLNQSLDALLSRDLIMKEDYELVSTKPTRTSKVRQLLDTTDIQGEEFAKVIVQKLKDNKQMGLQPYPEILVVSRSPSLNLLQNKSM

Measured: binding

3×FLAG-tagged RIPK2 (RIPK2m4 with C-terminal 3×FLAG tag) (from UniProt O43353 1-540) (enzyme)
binds: all assays above

Reference: US20230139516A1
